Test results from PubChem BioAssay AID504444 (National Center for Advancing Translational Sciences (NCATS), 2011).
The whole screen tested about 360,000 compounds, of which about 7,500 (2.1%) were called active. This list was built around the results that the source calls inconclusive (neither active nor inactive); the mix of calls is not that of the screen. Calls come from the whole dose curve; as a rule, active = well fitted inhibition curve with a large enough effect; inconclusive = small, poorly fitted or top-dose-only effect, or effect the other way; inactive = flat fitted curve, though single readings scatter. Potencies beside an inconclusive call are fits to weak or partial responses and may not hold up.

Assay: Nrf2 qHTS screen for inhibitors; note: nearly all actives have a fitted effect of over 60% in size
Details: A549 ARE-Fluc reporter, luciferase luminescence, 18-24 h; series mostly up to 46 µM
Procedure, shortened: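 A549 ARE_Fluc cells (5000/well, 5% FBS OPTI-MEM) pre-incubated 2 h, then treated with compounds 18-24 h at 37C/5% CO2 in concentration-response. CellTiter-Fluor viability read first; BugLite luciferase luminescence after 15 min at room temperature gives Nrf2 activity.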
Potency is the fitted concentration of half-maximal effect.

Compound	Potency
CCCC(CCC)=NNc1ccc(S(=O)(=O)Nc2ccccc2OC)cc1[N+](=O)[O-]	inconclusive: 29.1 µM [falling, single point]
Cc1cccc(Nc2nc(N)nc(CN3CCN(c4ccc(F)cc4)CC3)n2)c1	inconclusive: 29.1 µM [falling, single point]
COCCn1c(SCc2cccc([N+](=O)[O-])c2)nc2ccccc2c1=O	inconclusive: 16.4 µM [falling, partial curve, poor fit]
O=C(NCc1cccnc1)c1ccc(NC(=O)c2ccc(Br)cc2)cc1	inconclusive: 1.84 µM [falling, full curve, poor fit]
CC1CCCN(c2ccc(C(=O)NCCc3ccccc3)cn2)C1 (stereo not drawn)	inconclusive: 0.731 µM [activator, full curve]
COc1ccc(C(=O)NCCSCc2ccccc2Cl)cc1OC	inconclusive: 29.1 µM [falling, single point]
COc1cccc(Cn2cnc3c(NS(=O)(=O)c4cccc(Cl)c4Cl)c(C)c(C)cc32)c1	inconclusive: 18.4 µM [falling, single point]
COc1cc(/C=N/NC(=O)Nc2ccccc2)ccc1OCCOc1ccccc1C	active: 14.6 µM
CCCCn1cnc2c(SCc3cccc(F)c3)nc(N)nc21	inconclusive: 10.3 µM [falling, partial curve, poor fit]
CC(=O)Nc1ccc(NC(=O)CN(c2ccccc2Cl)S(C)(=O)=O)cc1	inconclusive: 29.1 µM [falling, partial curve, poor fit]
COc1ccccc1-n1ccnc(SCC(=O)NCc2ccccc2)c1=O	inconclusive: 6.51 µM [activator, partial curve, poor fit]
Cc1ccc(N(C)S(=O)(=O)c2ccc3c(c2)NC(=O)C(C)S3)cc1 (stereo not drawn)	inconclusive: 18.4 µM [falling, single point]
Cc1ccc(S(=O)(=O)N(C)c2c(C)ccc(S(N)(=O)=O)c2C)cc1	inconclusive: 3.66 µM [falling, partial curve, poor fit]
COc1cccc(CCNC(=O)c2cnc3sc(N4CCCCCC4)nn3c2=O)c1	inconclusive: 7.31 µM [falling, partial curve, poor fit]
Cc1ccc(-n2nc3c(=O)n(CC(=O)NC(C)C)nc(C)c3c2C)cc1	inactive
Clc1ccc(OCCCc2nc(-c3cccnc3)no2)c(Cl)c1	inconclusive: 23.1 µM [falling, partial curve, poor fit]
C=C(C)C(=O)N1CC2(CC(c3cccc(NC(=O)CC(c4ccccc4)c4ccccc4)c3)=NO2)C[C@H]1C(N)=O (stereo partly drawn)	inconclusive: 20.6 µM [falling, single point]
CCn1c(SCC(=O)Nc2nc(-c3ccc(C)cc3)cs2)nnc1-c1ccccc1	inconclusive: 29.1 µM [falling, single point]
Cc1ccc(S(=O)(=O)c2nc(S(C)(=O)=O)sc2N2CCOCC2)cc1	inconclusive: 23.1 µM [falling, partial curve, poor fit]
O=C(NCCCN1CCOCC1)C(=O)N/N=C/c1c(Cl)cccc1Cl	inactive
CCN=C1NN=C(c2c[nH]c3ccccc23)CS1	inconclusive: 5.17 µM [activator, partial curve]

Compound	Potency
CCOc1ccc(NC(=O)Cn2cc(C(=O)c3cccs3)c3ccccc32)cc1	inconclusive: 32.6 µM [falling, single point]
CC(OC(=O)c1cc2sccc2n1C)C(=O)NCC1CCCO1 (stereo not drawn)	inconclusive: 32.6 µM [falling, single point]
COc1ccc(CCCNC(=O)C2CCC(=O)N(Cc3ccc(Cl)cc3)C2)cc1 (stereo not drawn)	inconclusive: 20.6 µM [falling, single point]
CC(=O)N1CCc2c(sc(NC(=O)CCS(=O)(=O)c3ccccc3)c2C(N)=O)C1	inconclusive: 1.16 µM [falling, full curve, poor fit]
O=C(c1ccc(Cl)cc1Cl)N1CCOCC1	inactive
COc1cc(Cl)ccc1OCc1cc(C(=O)N(C)CCc2c(C)n[nH]c2C)no1	inconclusive: 20.6 µM [activator, partial curve, poor fit]
CN(C)S(=O)(=O)c1ccc(C(=O)Nc2ccccn2)cc1	inconclusive: 6.51 µM [activator, partial curve]
Cc1cccc(OCCn2c(CCNC(=O)C3CCCCC3)nc3ccccc32)c1	inconclusive: 41.1 µM [falling, partial curve, poor fit]
O=C1ON=C(c2ccccc2)/C1=C/c1ccc(O)c(O)c1	inactive
c1ccc(CN2CCC(Nc3nc(-c4ccccc4)nc4ccccc34)CC2)cc1	inconclusive: 29.1 µM [falling, single point]
CCC1CCCCN1C1Sc2ccc(C(=O)OC)cc2NC1=O (stereo not drawn)	inconclusive: 3.66 µM [falling, full curve]
CCC(C)Oc1ccc(C(=O)Nc2ccc(CN3CCOCC3)cc2)cc1 (stereo not drawn)	active: 23.1 µM
Clc1ccc(CCNc2nc3ccccc3c3nc(-c4ccccc4)nn23)cc1	inactive
CCOc1cc(C(=O)Nc2cccc(OCC(=O)N3CCOCC3)c2)cc(OCC)c1OCC	inactive
COc1ccc(NC(=O)c2nc[nH]c2C(=O)N[C@@H](CC(C)C)C(=O)OC(C)(C)C)cc1	inconclusive: 29.1 µM [falling, single point]
Oc1ccc(Nc2nc3ccccc3n3cnnc23)cc1	inconclusive: 14.6 µM [falling, partial curve]
Cc1cccc(Cn2c(=O)n(Cc3ccc(C(=O)NC4CCN(Cc5ccccc5)CC4)cc3)c(=O)c3ccccc32)c1	inactive
Cc1ccc(-n2c(C)cc(C(=O)COc3c(CO)cc(F)cc3CO)c2C)cc1C	inconclusive: 29.1 µM [falling, single point]
Cc1ccc(C2c3c(-c4cc(C)ccc4O)n[nH]c3C(=O)N2Cc2ccco2)cc1 (stereo not drawn)	inactive
O=C(c1ccc2c3n(nc2c1)-c1ccccc1CO3)N1CCCCC1	inconclusive: 0.517 µM [activator, full curve, poor fit]
COc1ccc(C(=O)O/N=C(\N)c2ccccc2)cc1OC	inconclusive: 6.51 µM [activator, partial curve, poor fit]

Quoted at random: four records from the list.
Compound	Potency
Clc1ccc(CCNc2nc3ccccc3c3nc(-c4ccccc4)nn23)cc1	inactive
Cc1ccc(S(=O)(=O)N(C)c2c(C)ccc(S(N)(=O)=O)c2C)cc1	inconclusive: 3.66 µM [falling, partial curve, poor fit]
CCn1c(SCC(=O)Nc2nc(-c3ccc(C)cc3)cs2)nnc1-c1ccccc1	inconclusive: 29.1 µM [falling, single point]
Cc1ccc(S(=O)(=O)c2nc(S(C)(=O)=O)sc2N2CCOCC2)cc1	inconclusive: 23.1 µM [falling, partial curve, poor fit]

(further entries)

Compound	Potency
CC(C)(C)C(=O)Nc1nnc(-c2ccccc2)c(-c2ccccc2)n1	inconclusive: 6.51 µM [falling, partial curve, poor fit]
Fc1ccc(OCc2nn3c(Cn4nnc5ccccc54)nnc3s2)cc1	inconclusive: 29.1 µM [falling, single point]
COc1ccc(S(=O)(=O)N2CCN(CC(O)COc3ccc(C#N)cc3)CC2)cc1OC (stereo not drawn)	inconclusive: 29.1 µM [falling, single point]
CN1CCCN(C(=O)/C=C/c2ccc(Cl)cc2Cl)CC1	inconclusive: 13 µM [falling, partial curve, poor fit]
CCN(CC1COc2ccccc2O1)C(=O)c1ccc(Cl)c(S(=O)(=O)N2CC(C)OC(C)C2)c1 (stereo not drawn)	inconclusive: 16.4 µM [falling, single point]
Cc1ccc(C2=NN(C(=O)CNCCO)C(c3cccs3)C2)cc1 (stereo not drawn)	inconclusive: 29.1 µM [activator, single point]
O=C(NCCCn1ccnc1)c1ccc(N2CCCCCC2)c([N+](=O)[O-])c1	active: 2.91 µM
CCOc1ccc(CC(=O)Nc2c(C(=O)Nc3ccccc3)oc3ccccc23)cc1OCC	inconclusive: 8.2 µM [falling, partial curve, poor fit]
CCOc1ccc(S(=O)(=O)/N=C(\N)c2ccccc2)cc1	inconclusive: 20.6 µM [falling, partial curve, poor fit]
Cc1cc(CN(C)C(=O)CCc2nnc(Cc3cccc(C(F)(F)F)c3)o2)on1	inconclusive: 11.6 µM [activator, partial curve]
Cc1cc(-c2nnc(SCC(=O)N3C(C)CCCC3C)o2)no1 (stereo not drawn)	inconclusive: 10.3 µM [activator, partial curve]
O=C(NCC1CCCO1)c1cc(-c2ccccc2F)no1 (stereo not drawn)	inconclusive: 3.26 µM [activator, full curve, poor fit]
O=C(Nc1ccncc1)c1cc(S(=O)(=O)N2CCN(c3ccccc3)CC2)ccc1Cl	inconclusive: 29.1 µM [falling, single point]
COc1ccc2c(c1)[C@H]1[C@H](CO2)[C@H](c2ccccc2)[C@]2(C)C(=O)Nc3ccc(F)cc3C(=O)N12	inconclusive: 4.11 µM [activator, partial curve]
Cc1cccc(Cn2ccn(Cc3ccc(Cl)cc3)c(=O)c2=O)c1	inconclusive: 29.1 µM [activator, single point]
CCN(CC)C(=O)c1sc(NC(=O)c2nc3ncccn3n2)c(C(=O)OC)c1C	inactive
O=C(Nc1cccc2c1CCCC2)c1ccccc1F	inconclusive: 29.1 µM [activator, single point]
CCN1/C(=C/c2cc[n+](C)cc2)C=Cc2cc(C)ccc21	active: 3.66 µM
CCS(=O)(=O)N1N=C(c2cccs2)CC1c1cc2cc(C)ccc2nc1Cl (stereo not drawn)	inconclusive: 23.1 µM [activator, partial curve, poor fit]
O=C(CSc1nc(-c2cccc(Cl)c2)nc2cc(=O)[nH]n12)Nc1ccccc1	inconclusive: 9.2 µM [falling, partial curve, poor fit]
NC(=O)C1CCN(c2ccc3c(c2)S(=O)(=O)c2ccccc2C3=O)CC1	inconclusive: 14.6 µM [activator, partial curve]
